Measured values as given in patent publication EP4727976A2.
Results are given in words; binding and its absence hold for the method and conditions named. Some binding calls cover weakened binding; strength is not graded here. Where a sequence is shown, tags or fusion partners need not be part of it.

What was measured:
[1] = biological target: T1, human MICB, 6XHis tagged (human) (UniProt Q29980); assay: BLI (Gator Bio), antibody on anti-Fc biosensors, 200 nM 6XHis tagged antigen, monovalent format
T1 sequence (looked up): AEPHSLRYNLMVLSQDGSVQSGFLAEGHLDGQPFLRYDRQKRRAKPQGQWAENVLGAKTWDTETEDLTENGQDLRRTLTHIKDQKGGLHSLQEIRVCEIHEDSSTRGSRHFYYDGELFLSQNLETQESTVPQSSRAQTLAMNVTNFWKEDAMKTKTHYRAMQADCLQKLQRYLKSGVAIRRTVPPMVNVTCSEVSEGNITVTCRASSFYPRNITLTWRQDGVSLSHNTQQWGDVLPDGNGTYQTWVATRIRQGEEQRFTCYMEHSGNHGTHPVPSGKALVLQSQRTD

[2] = biological target: T2, human MICA, 6XHis tagged (human) (UniProt Q29983); assay: as above
T2 sequence (looked up): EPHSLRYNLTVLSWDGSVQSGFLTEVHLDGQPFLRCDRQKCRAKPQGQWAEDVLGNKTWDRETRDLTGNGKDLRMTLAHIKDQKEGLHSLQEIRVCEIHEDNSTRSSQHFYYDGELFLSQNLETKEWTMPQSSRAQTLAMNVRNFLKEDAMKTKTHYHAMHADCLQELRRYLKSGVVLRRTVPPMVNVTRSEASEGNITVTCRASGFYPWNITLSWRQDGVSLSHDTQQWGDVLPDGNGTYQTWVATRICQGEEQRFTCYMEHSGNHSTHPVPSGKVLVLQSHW

[3] = biological target: T1, human MICB, 6XHis tagged (human); assay: BLI binding kinetics (legend of FIG. 8)
[4] = biological target: T2, human MICA, 6XHis tagged (human); assay: BLI binding kinetics (legend of FIG. 8)

Measured: binding

B1: ATX-P-1826 (fully humanized anti-MICA antibody) (antibody, human IgG1, kappa, V domains shown)
VH: QVQLVQSGAEVRKPGASVKVSCKASGYTFTGNYIHWVRQAPGQGLEWMGWINPNSGATNSAQKFQGRVTTTRDTSIDTAYMELSRLRSDDTAVYYCARDTFKPYYYYYLDVWGKGTTVTVSS
VL: DIQMTQSPSSVSASVGDRVTITCRTSQAINSWLAWYQQKPGKPPKLLISAASSLQSGVPSRFSGSGSGTDFTLTISNLQPEDFATYYCQQANIFPLTFGGGTKVEIKR
binds: all assays above
